No constants are given. Whether binding was seen depends on the method and setting. Binding seen in cells or lysates may run through a third protein. Some binding calls cover weakened binding; strength is not graded here. Tags and fused reporters may be left off the sequences shown.
T1: Myc-USP45 (human) (UniProt Q70EL2)
T1 sequence: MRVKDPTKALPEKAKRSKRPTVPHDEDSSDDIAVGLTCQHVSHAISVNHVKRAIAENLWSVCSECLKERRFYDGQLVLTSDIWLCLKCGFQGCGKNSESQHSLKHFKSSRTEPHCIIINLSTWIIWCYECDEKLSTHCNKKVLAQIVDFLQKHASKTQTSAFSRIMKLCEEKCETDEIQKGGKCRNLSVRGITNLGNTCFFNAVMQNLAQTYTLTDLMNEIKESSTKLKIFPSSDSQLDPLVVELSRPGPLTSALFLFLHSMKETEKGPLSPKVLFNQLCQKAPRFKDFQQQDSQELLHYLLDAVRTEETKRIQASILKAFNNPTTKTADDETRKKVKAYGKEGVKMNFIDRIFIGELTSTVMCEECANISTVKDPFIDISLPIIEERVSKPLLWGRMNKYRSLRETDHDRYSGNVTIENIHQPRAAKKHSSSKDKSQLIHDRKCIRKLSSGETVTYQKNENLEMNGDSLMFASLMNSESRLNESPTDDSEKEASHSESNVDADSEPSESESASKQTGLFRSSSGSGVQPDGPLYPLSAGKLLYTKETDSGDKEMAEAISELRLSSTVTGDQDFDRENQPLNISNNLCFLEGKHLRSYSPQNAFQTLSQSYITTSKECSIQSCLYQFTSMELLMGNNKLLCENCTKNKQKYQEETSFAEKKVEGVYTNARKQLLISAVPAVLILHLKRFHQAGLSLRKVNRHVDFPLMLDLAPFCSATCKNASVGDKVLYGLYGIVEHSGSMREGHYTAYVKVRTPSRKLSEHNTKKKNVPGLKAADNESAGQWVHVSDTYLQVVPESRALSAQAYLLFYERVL

Protein sequences, listed by entry. Tags and fused reporters are not part of them.
UniProt Q9BR76: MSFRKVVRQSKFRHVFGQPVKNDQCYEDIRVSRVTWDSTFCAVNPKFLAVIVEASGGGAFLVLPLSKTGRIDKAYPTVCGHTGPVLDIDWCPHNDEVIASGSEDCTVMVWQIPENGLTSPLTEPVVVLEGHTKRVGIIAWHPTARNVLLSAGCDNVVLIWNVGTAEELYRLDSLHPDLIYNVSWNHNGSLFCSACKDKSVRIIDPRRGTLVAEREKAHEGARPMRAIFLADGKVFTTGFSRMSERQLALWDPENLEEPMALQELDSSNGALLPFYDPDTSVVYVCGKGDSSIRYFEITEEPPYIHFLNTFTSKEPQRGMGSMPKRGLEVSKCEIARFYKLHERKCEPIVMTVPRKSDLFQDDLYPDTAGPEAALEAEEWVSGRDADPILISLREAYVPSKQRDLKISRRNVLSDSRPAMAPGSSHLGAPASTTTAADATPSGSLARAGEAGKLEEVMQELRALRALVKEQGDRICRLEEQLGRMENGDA
UniProt Q9ULV4: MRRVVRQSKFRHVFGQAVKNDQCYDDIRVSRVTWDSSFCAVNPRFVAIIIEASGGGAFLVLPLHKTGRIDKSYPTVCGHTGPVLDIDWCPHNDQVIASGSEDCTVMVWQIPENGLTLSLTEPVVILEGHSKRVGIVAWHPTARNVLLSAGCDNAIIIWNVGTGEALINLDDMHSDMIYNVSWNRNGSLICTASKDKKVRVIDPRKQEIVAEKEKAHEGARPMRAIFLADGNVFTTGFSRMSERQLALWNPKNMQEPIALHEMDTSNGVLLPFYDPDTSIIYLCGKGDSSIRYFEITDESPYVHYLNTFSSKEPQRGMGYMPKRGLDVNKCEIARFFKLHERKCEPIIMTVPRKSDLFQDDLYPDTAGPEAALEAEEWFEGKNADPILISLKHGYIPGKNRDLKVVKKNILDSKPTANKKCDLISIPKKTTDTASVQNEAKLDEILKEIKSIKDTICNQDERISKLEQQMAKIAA

B1: Myc-USP45 (enzyme, UniProt Q70EL2 1-814)
chain: T1 sequence
B2: endogenous USP45 (enzyme, UniProt Q70EL2 1-814)
chain: T1 sequence

Columns and labels:
[1] = biological target: T1, Myc-USP45 (human); experiment: co-IP; HEK293T cells expressing Myc-USP45 and Flag-Coro1B or Flag-Coro1C; IP with anti-Myc antibody and protein G-Sepharose, Western blot; lysis buffer 50 mM Tris-HCl pH 7.4, 150 mM NaCl, 1 mM EDTA, 10% glycerol, 1% Triton X-100
[2] = biological target: Flag-Coro1B (UniProt Q9BR76); experiment: co-IP; IP of Flag-Coro1B with Flag antibody, Western blot for Myc-USP45 or endogenous USP45; lysis buffer 50 mM Tris-HCl pH 7.4, 150 mM NaCl, 1 mM EDTA, 10% glycerol, 1% Triton X-100

| Molecule | binding [1] | binding [2] |
| --- | --- | --- |
| Flag-Coro1C (from UniProt Q9ULV4 1-474) | no binding |  |
| Flag-Coro1B (from UniProt Q9BR76 1-489) | binds |  |
| B1 |  | binds |
| B2 |  | binds |

Reference: PMC11895698
